Data as given in PubChem BioAssay AID1259323 (Peter MacCallum Cancer Centre, 2017)

- Screen: 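Kinase siRNA screen linking the PAR2 receptor to the TRPV4 channel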 (primary screen)
- Cell system: human HEK293 cells stably carrying inducible TRPV4
- Reagent: siRNA pool against human genes
- Challenge: PAR2 activation; agonist identity and dose not given
- Detection: 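Signal of a calcium dye in live cells following PAR2 activation, plateau and early peak normalised to mock transfection on each plate, mean of duplicate plates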
- Scale: TRPV4 plateau calcium, % of mock: higher = stronger sustained TRPV4 calcium entry than mock; PAR2 peak calcium, % of mock: higher = stronger early PAR2 calcium response than mock
- Call rule: 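Active if plateau calcium is under 90% of mock and early peak calcium stays over 79% of mock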
The whole screen tested 715 reagents; shown is an unselected part. 91 of all reagents (13%) count as active. 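Active pools lower the sustained TRPV4 phase but spare the early PAR2 peak; PAR2 agonist and dose are not stated; pools repeat across wells.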 A number with no mark means an inactive call. Not given: the amount of reagent, the time to read-out.

HASPIN: TRPV4 plateau calcium, % of mock = 108; PAR2 peak calcium, % of mock = 103
GNE: TRPV4 plateau calcium, % of mock = 88.3 (active); PAR2 peak calcium, % of mock = 96.5
MYLK4: TRPV4 plateau calcium, % of mock = 99.2; PAR2 peak calcium, % of mock = 107
ABL2: TRPV4 plateau calcium, % of mock = 87.5 (active); PAR2 peak calcium, % of mock = 92
CDK18: TRPV4 plateau calcium, % of mock = 99.7; PAR2 peak calcium, % of mock = 104
PHKA1: TRPV4 plateau calcium, % of mock = 99.7; PAR2 peak calcium, % of mock = 99.7
MPP2: TRPV4 plateau calcium, % of mock = 101; PAR2 peak calcium, % of mock = 89.8
BLK: TRPV4 plateau calcium, % of mock = 105; PAR2 peak calcium, % of mock = 107
MAP3K2: TRPV4 plateau calcium, % of mock = 101; PAR2 peak calcium, % of mock = 98.5
CERK: TRPV4 plateau calcium, % of mock = 97.2; PAR2 peak calcium, % of mock = 104
CASK: TRPV4 plateau calcium, % of mock = 102; PAR2 peak calcium, % of mock = 99.7
CKB: TRPV4 plateau calcium, % of mock = 97.2; PAR2 peak calcium, % of mock = 98.9
CDK7: TRPV4 plateau calcium, % of mock = 97; PAR2 peak calcium, % of mock = 99.9
CSK: TRPV4 plateau calcium, % of mock = 97.1; PAR2 peak calcium, % of mock = 95.4
WNK1: TRPV4 plateau calcium, % of mock = 91.3; PAR2 peak calcium, % of mock = 92.3
CLK4: TRPV4 plateau calcium, % of mock = 90.5; PAR2 peak calcium, % of mock = 93.7
STKLD1: TRPV4 plateau calcium, % of mock = 91.1; PAR2 peak calcium, % of mock = 94.5
TSKS: TRPV4 plateau calcium, % of mock = 95.3; PAR2 peak calcium, % of mock = 96.3
PKLR: TRPV4 plateau calcium, % of mock = 98.5; PAR2 peak calcium, % of mock = 96.5
EFNA3: TRPV4 plateau calcium, % of mock = 93.8; PAR2 peak calcium, % of mock = 93.9
PLK1: TRPV4 plateau calcium, % of mock = 75.9; PAR2 peak calcium, % of mock = 67.9
IPPK: TRPV4 plateau calcium, % of mock = 114; PAR2 peak calcium, % of mock = 103
STK35: TRPV4 plateau calcium, % of mock = 98.5; PAR2 peak calcium, % of mock = 101
TNNI3K: TRPV4 plateau calcium, % of mock = 92.9; PAR2 peak calcium, % of mock = 92
SGK3: TRPV4 plateau calcium, % of mock = 116; PAR2 peak calcium, % of mock = 106
AXL: TRPV4 plateau calcium, % of mock = 101; PAR2 peak calcium, % of mock = 99.9
GK2: TRPV4 plateau calcium, % of mock = 103; PAR2 peak calcium, % of mock = 99.4
CDK5: TRPV4 plateau calcium, % of mock = 101; PAR2 peak calcium, % of mock = 94.8
KCNH2: TRPV4 plateau calcium, % of mock = 90.3; PAR2 peak calcium, % of mock = 94.5
DYRK2: TRPV4 plateau calcium, % of mock = 106; PAR2 peak calcium, % of mock = 104
GRK4: TRPV4 plateau calcium, % of mock = 95.4; PAR2 peak calcium, % of mock = 99.6
MERTK: TRPV4 plateau calcium, % of mock = 91.9; PAR2 peak calcium, % of mock = 101
PIK3CB: TRPV4 plateau calcium, % of mock = 91.5; PAR2 peak calcium, % of mock = 101
FXN: TRPV4 plateau calcium, % of mock = 106; PAR2 peak calcium, % of mock = 101
TTBK2: TRPV4 plateau calcium, % of mock = 107; PAR2 peak calcium, % of mock = 102
PIK3CD: TRPV4 plateau calcium, % of mock = 117; PAR2 peak calcium, % of mock = 108
MAPK1: TRPV4 plateau calcium, % of mock = 119; PAR2 peak calcium, % of mock = 103
DMPK: TRPV4 plateau calcium, % of mock = 109; PAR2 peak calcium, % of mock = 100
CDK2: TRPV4 plateau calcium, % of mock = 102; PAR2 peak calcium, % of mock = 100
KHK: TRPV4 plateau calcium, % of mock = 103; PAR2 peak calcium, % of mock = 101
